About 210 (0.4%) of roughly 52,000 sequences were called active.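 How the source made its calls: active means gene whose silencing raises cell survival under the drug, median off-target-corrected z-score across its silencing RNAs 2 or more; inactive means the rest.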 The list shows a part of the results.

This assay can be described thus: Resistance to Poly (ADP-Ribose) Polymerase inhibitor: Gene Identification via Genome-wide siRNA Screen. The following applies: mouse BRCA2 R2336H ES cells, olaparib, CellTiter-Glo viability; stronger effect = higher value. An outline of the steps:
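Mouse BRCA2 R2336H ES cells were reverse-transfected with siRNA (20 nM final), treated at 48 h with 500 nM olaparib, and read by CellTiter-Glo after 72 h. Scores: MAD-based z per siRNA, median per gene, seed off-target correction.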
On the technique in general: Cellular ATP, detected with luciferase, serves as a proxy for viable cell number.
Turning to “GGUAAAUGAGUAGCUUAGUTT against 1300006M19Rik”, the z-score was inactive: 0.502.
Regarding GCAUGUGAUUUCAGGUUGATT against Echdc1, the z-score is inactive: -0.808.
For the sequence “GGUCUUCUCCGAAAGUGAATT against B230106I24Rik”, the z-score is inactive: -0.271.
Consider “GCUGCAUUACAAGCCCAACTT against 0610030H11Rik”, for which the z-score was inactive: -0.157.
To GGCGCAUUAGCAGAGACUGTT against Mrps5 belongs inactive: -0.832; to GCGAGCUGUACCUUUCUAGTT against Lmo3, inactive: -2.72; to GGACAUAGUCCUUUUUGUUTT against Myod1, inactive: -0.501.
As for GGAUUUCCCAUCAAAGACGTT against Serpinf2, the z-score is inactive: 0.799.
In the case of CCCUGAUUGGACUGAACUCTT against Olfr145, the z-score is inactive: 1.05.
As to “GGGAGCAGAUUGAAACAGUTT against 4933424N09Rik”, the z-score was inactive: 0.495.
In the case of CCCUUGUUGUUUAUCCUCATT against Ly6f, the z-score was inactive: -0.869.
GGACAAUGACCAGUUGAACTT against Prrx1: the z-score was inactive: 0.557.
Take “CCUCAAGGCAGUUCAUAUUTT against 6330581L23Rik”: the z-score was inactive: 0.313.
With “GGAGCUCCUGUACGACUAUTT against 2410195B05Rik”, the z-score is inactive: -1.33.
To GCAGAAAUGUCCAUCCAAATT against Sprr2k belongs inactive: 0.585; to GGAGUUUGUGUUGUCAGUGTT against Kcng3, inactive: 2.16.
To GUGGCUGACAAGUUUAUCATT against Cyp2c66 belongs inactive: 0.843; to “GCAGCAGUUGGCUAAAACATT against 2900006K08Rik”, inactive: 0.163; to “GGAAUUUUAUCAUUGGGACTT against 5031404N07”, inactive: -0.078.
As for GCUGCAUUGGUUGAAUGUGTT against Slc22a1, the z-score was inactive: -1.56.
For GCAUAUAUCUGUGGAGUGUTT against Olfr1502, the z-score was inactive: 0.762.
For GCUCACACAGGGAACAUUGTT against Butr1, the z-score is inactive: -1.5.
In the case of CCUGAGACAUACUUAAUGUTT against Anapc10, the z-score was inactive: 0.877.
Turning to GGAUCUUUGCUACAAAAACTT against Fhl5, the z-score was inactive: 0.13.
In the case of CCACCCUUGGUAAAAAUGUTT against Olfr1006, the z-score was inactive: -1.87.
For GGUAAUGUGGAACACAGCATT against Gsr, the z-score is inactive: 1.11.
As to GGAUCAGAGAACAGAGUCUTT against Alms1, the z-score was inactive: -1.14.
With “CGAUACGGAUGUUUUCUCUTT against 6720430O15”, the z-score was inactive: -0.421.
Regarding “GCUUAAAUGUUCUCUGUUCTT against E230012M21”, the z-score was inactive: 0.0386.
As for GCCAUGAUGACUAACCUUATT against Dbpht2, the z-score is inactive: -1.13.
Regarding GGUCACUCCGAUGUUAUUUTT against G6pc, the z-score was inactive: -0.0399.
For “CCGUAAUCUGGUUGGAUUUTT against 4931419P11Rik”, the z-score is inactive: 1.42.
In the case of “GGUUAAGAGCUCUACAAAUTT against 4921513O04”, the z-score was inactive: 0.817.
In the case of GGAAAAGCUUUUGUUCCCATT against Tfb1m, the z-score was inactive: 0.934.
GGAAAAGGUAGGGACCUAUTT against Tce4: the z-score is inactive: 0.876.
As for GACCACACUCAUCCAGGCUTT against Pgbpll, the z-score was inactive: 2.74.
To GGUAACUCUCCUUAGCCAGTT against Klk10 belongs inactive: 2.07.
As for “CCUGAGACUGCAUCUUUUCTT against 2410193C02Rik”, the z-score is inactive: 0.921.
To GGAAGAAGACAUGCUCACUTT against Pcdhb8 belongs inactive: 1.35; to GGACGGCAAAUUUGGUUUCTT against Mmp9, inactive: 3.19.
As for GGUGCUACUCCAGAUUGACTT against Tbc1d13, the z-score is inactive: 1.89.
Consider CCAAAUUCAUCAGAUCUUCTT against Olfr424, for which the z-score is inactive: 0.000965.
Take GCCACUACAUAAAAUAGUCTT against D11Moh35: the z-score is inactive: -0.529.
For the sequence CCUGUGGUGCAAACGGUUGTT against Osm, the z-score was inactive: -0.513.
Consider GGAUGUGGAGCAAGUGAAGTT against Stx1b2, for which the z-score was inactive: -0.267.
Take GGAAAACCAGCACAAUUUATT against Igsf4a: the z-score was inactive: -0.365.
To “CCUGAGAUUGGCAAUAUAGTT against G430022H21Rik” belongs inactive: 0.0993; to GGCAUUCAGAUGACAAUGGTT against C1galt1, inactive: 1.33.
On to GCAUACAAGACCGUGAUCATT against Psmc4, for which the z-score is inactive: -3.1.
As to CGAGUUGAAAUGUUGGCAATT against AV071179, the z-score is inactive: -0.608.
With “GGAUCAGCUGUUGCCAGAGTT against C130073D16Rik”, the z-score is inactive: -1.48.
As for CCACUCUUACCAAGAAGAGTT against Mog, the z-score was inactive: -0.111.
In the case of GGAGAUUGAAGAGCUCCGATT against Cabp1, the z-score was inactive: -0.563.
To “CGAAAAGGCAAAGUAUGAATT against 1700001F22Rik” belongs inactive: -0.319; to GGAGCAAAUCUUCUGUGUATT against Cdc42ep1, inactive: -1.25; to GCAUCUCAAGACGAUGGAUTT against Akap8l, inactive: 0.941.
Consider GGUAUUCCCUAUGCUUCUCTT against Gpm6a, for which the z-score was inactive: -0.0423.
To GCUUUAAAACAUAUGCCUGTT against Mip belongs inactive: 0.818; to GCCAUUUCUUACACCUAUATT against Olfr484, inactive: -1.36.
Take GGUCUUCCUUUUGGUCUUCTT against Olfr1240: the z-score was inactive: 0.515.
For the sequence “GGCACAGCGGGUGAUCAAATT against 1810019A08Rik”, the z-score is inactive: -0.828.
For the sequence GCACCUCUCCCUACGAUUATT against Cxcr3, the z-score is inactive: 1.01.
For the sequence GGCUUUGAUUAUGUUCCCATT against Fcer2a, the z-score was inactive: 2.
As for GCUACCAUGCCCUAUGUAGTT against Slc6a3, the z-score was inactive: -0.289.
Consider GAUGUGUUAACUACACCGATT against Pyy, for which the z-score was inactive: 0.521.
Regarding GGAGGAACCUGAAGAUCUGTT against Bcl2l11, the z-score was inactive: -0.922.
